Measurements taken from PubChem BioAssay AID2685 (National Center for Advancing Translational Sciences (NCATS), 2010).
This is one part of the list. These are further read-outs of the screen, such as a control signal, another cell line or another target. No call is given for them. Most of these compounds were active or inconclusive in the main read-out, so they are no random draw. The note in brackets gives the kind of curve behind each potency; many fits are weak.

Assay: qHTS Assay for Lipid Storage Modulators in Drosophila S3 Cells;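 as to cell number change: cells counted by Cell Tracker Red CMTPX staining in the red channel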
Conditions: BODIPY lipid droplet fluorescence, 18-24 h; for cell number change: measured here: cell count max response, cells fed with added oleic acid
Outline: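 Laser-scanning cytometry quantifies lipid droplet accumulation (500–530 nm total intensity; droplet/cell object ratio) in oleic acid-fed (400 uM added) Drosophila S3 cells treated with a concentration series. 20 uM Triacsin C defined 100% inhibition.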

[1] = measured here: lipid fluorescence (Fed channel) AC50, cells fed with added oleic acid
[2] = measured here: cell number channel AC50, cells fed with added oleic acid

CC(OC(=O)c1ccccn1)C(=O)Nc1ccc(C(F)(F)F)cc1 (stereo not drawn)
cell number change: -12%

COc1c(OC2OC(C(=O)O)C(O)C(O)C2O)cc(O)c2c(=O)cc(-c3ccccc3)oc12 (stereo not drawn)
cell number change: 1.98%
AC50 [1]: 18.4 µM [rising, single point]

CC(C)(C)NC(=O)COC(=O)c1ccc(S(=O)(=O)N2CCCC2)cc1
cell number change: -110%
AC50 [1]: 29.1 µM [falling, single point]

COc1ccc(/C=C2\SC(=S)N(NS(=O)(=O)c3ccc(C)cc3)C2=O)c(OC)c1
cell number change: -14.4%
AC50 [1]: 20.6 µM [rising, single point]

Cc1ccc2c(c1)c1c(n2CC(O)CN2CCOCC2)CCCC1 (stereo not drawn)
cell number change: 15%

O=C(O)CCn1c(-c2ccccc2)cc2c1CCCC2=O
cell number change: 31%
AC50 [2]: 13 µM [rising, single point]

CC(C)(Cc1ccc(O)cc1)NC(=O)CC(=O)N=Nc1c(O)[nH]c2cc(Br)ccc12
cell number change: -1.56%
AC50 [1]: 0.0058 µM [falling, full curve, poor fit]

FC(F)(F)C(F)(F)c1nnc2ccc(-n3ccnc3)nn12
cell number change: 18.6%
AC50 [2]: 3.26 µM [rising, single point]
AC50 [1]: 6.51 µM [rising, single point]

Cc1ccc([N+](=O)[O-])cc1NC(=O)c1ccoc1C
cell number change: -1.38%
AC50 [1]: 4.11 µM [rising, full curve, poor fit]

CC1CCN(C(=O)CSCC(=O)Nc2nc(-c3cccs3)cs2)CC1
cell number change: -14.2%
AC50 [1]: 10.3 µM [falling, partial curve, poor fit]

O=C(Nc1c(C(=O)N2CCOCC2)cnn1-c1ccccc1)c1ccc([N+](=O)[O-])cc1
cell number change: -33.7%
AC50 [2]: 32.6 µM [falling, single point]

COc1ccc(/C=C2\N=C(C)N(c3ccc4ccccc4c3)C2=O)cc1OC
AC50 [1]: 32.6 µM [falling, single point]

NS(=O)(=O)c1cccc(NC(=O)COC(=O)Cc2ccc(S(=O)(=O)N3CCCCC3)s2)c1
cell number change: -30.6%
AC50 [2]: 9.2 µM [falling, single point]
AC50 [1]: 2.06 µM [falling, partial curve]

CC(C)Oc1cccc(C(=O)Nc2ccccc2N2CCOCC2)c1
cell number change: 25.1%
AC50 [1]: 8.2 µM [rising, partial curve]

COc1ccc(C(=O)N/N=C(/C)c2cccc(NC(=O)c3ccccc3F)c2)cc1
cell number change: -27%
AC50 [1]: 8.2 µM [falling, single point]

COc1ccccc1C(=O)COC(=O)c1ccccc1O
cell number change: 4.24%

COC(=O)[C@@H](Cc1c[nH]c2ccccc12)NC(=O)CCC(=O)c1ccc(F)cc1
cell number change: 7.91%

CCOC(=O)c1ccc(NC(=O)Nc2ccc(Cl)cn2)cc1
cell number change: -20.1%
AC50 [1]: 4.61 µM [falling, full curve]

Cc1c(C#N)c2ccccc2n1CC(=O)NCc1cccnc1
cell number change: 31.5%
AC50 [2]: 11.6 µM [rising, partial curve]
AC50 [1]: 1.84 µM [falling, partial curve]

O=C(Nc1ccc(S(=O)(=O)Nc2ncccn2)cc1)c1nn(Cc2ccccc2)c(=O)c2ccccc12
cell number change: 10.4%

C=CCN(C(=O)CCC(=O)Nc1cc(C)on1)C(C(=O)NC1CCCC1)c1cccnc1 (stereo not drawn)
cell number change: -13.6%
AC50 [1]: 0.651 µM [rising, full curve]

CCN(CC)C(=S)Nc1ccc([N+](=O)[O-])cc1
cell number change: -16.7%
AC50 [2]: 0.58 µM [falling, single point]

CCOC(=O)c1c(CN2CCN(C)CC2)oc2ccc(OC)cc12
cell number change: 16.5%
AC50 [1]: 20.6 µM [rising, single point]

COc1cc(C(=O)N/N=C(\C)c2ccc3c(c2)OCO3)cc(OC)c1OC
cell number change: 65.1%
AC50 [2]: 6.51 µM [falling, single point]

Cn1c(=O)c2c(nc(NCc3ccco3)n2CCc2ccccc2)n(C)c1=O
AC50 [1]: 9.2 µM [falling, partial curve]

Cc1ccc(F)cc1NC(=O)CCOc1ccccc1
cell number change: -10.3%
AC50 [2]: 0.411 µM [rising, full curve]
AC50 [1]: 1.03 µM [rising, full curve]

O=C(CCCCCN1C(=O)c2cccc([N+](=O)[O-])c2C1=O)Nc1ccccc1F
cell number change: -13.2%

O=C(COc1cccc2ccccc12)NNC(=O)c1cccs1
cell number change: 10.8%

COc1cccc(C(=O)COc2ccc3c(C)c(Cc4ccccc4)c(=O)oc3c2)c1
cell number change: -12.7%
AC50 [2]: 0.58 µM [rising, single point]
AC50 [1]: 32.6 µM [rising, single point]

O=C(CN1C(=O)NC2(CCCCC2)C1=O)Nc1nc2c(F)cc(F)cc2s1
cell number change: 13.5%

COc1ccc(CN(C)CC(=O)Nc2ccccc2-c2ccccc2)c(OC)c1
cell number change: -23.9%

COc1ccccc1N(C)S(=O)(=O)c1ccc(C(=O)NC(C)c2ccccc2)cc1 (stereo not drawn)
cell number change: -2.2%
AC50 [1]: 5.8 µM [rising, single point]

CCOC(=O)CSC1=NC(=O)/C(=C/c2ccc(OC)cc2)S1
cell number change: -22.4%
AC50 [1]: 29.1 µM [falling, single point]

COc1cccc(CN2CCN(c3nc4nonc4nc3NC3CC3)CC2)c1
cell number change: 5.85%
AC50 [1]: 6.51 µM [falling, single point]

CCC1Oc2ccc(Cl)cc2N(CC(=O)O)C1=O (stereo not drawn)
cell number change: -22.7%
AC50 [1]: 0.82 µM [falling, single point]

CCOc1ccc2nc(NC3=NC(c4ccc(OC)cc4)CC(=O)N3)nc(C)c2c1 (stereo not drawn)
cell number change: -14%
AC50 [1]: 29.1 µM [falling, single point]

CCn1c(CSc2nc3ccccc3[nH]2)n[nH]c1=S
AC50 [1]: 0.82 µM [falling, full curve]

O=c1[nH]nc(CNc2ccc(C(F)(F)F)cc2)c2ccccc12
AC50 [1]: 0.58 µM [falling, single point]

CCOc1ccc2oc(C(=O)OCC(=O)N3CCCC(C)C3)c(C)c2c1 (stereo not drawn)
cell number change: 8.4%
AC50 [1]: 0.366 µM [falling, partial curve, poor fit]

CC(Oc1ccc2c(c1)oc(=O)c1ccccc12)C(=O)NCC1CCC(C(=O)O)CC1 (stereo not drawn)
cell number change: -12%

COc1cccc(CNC(=O)CN2C(=O)COc3ccc(S(=O)(=O)N4CCCCC4)cc32)c1
cell number change: -37.3%
AC50 [1]: 5.17 µM [rising, single point]
